Experiment [1] addresses αvβ3 integrin on BW5147.G.1.4 lymphoma cells (ATCC-TIB-48) (UniProt P43406). In words: adhesion of BW5147.G.1.4 cells to plate-immobilised protein.
For experiment [2] the target is unchanged. In words: adhesion of BW5147.G.1.4 cells to plate-immobilised protein (legend of FIG. 5).

Sequences of proteins named here, by UniProt entry; tags and fusion partners are left off. A change or cut given only in a name is not applied to a line headed by its entry.
UniProt P43406: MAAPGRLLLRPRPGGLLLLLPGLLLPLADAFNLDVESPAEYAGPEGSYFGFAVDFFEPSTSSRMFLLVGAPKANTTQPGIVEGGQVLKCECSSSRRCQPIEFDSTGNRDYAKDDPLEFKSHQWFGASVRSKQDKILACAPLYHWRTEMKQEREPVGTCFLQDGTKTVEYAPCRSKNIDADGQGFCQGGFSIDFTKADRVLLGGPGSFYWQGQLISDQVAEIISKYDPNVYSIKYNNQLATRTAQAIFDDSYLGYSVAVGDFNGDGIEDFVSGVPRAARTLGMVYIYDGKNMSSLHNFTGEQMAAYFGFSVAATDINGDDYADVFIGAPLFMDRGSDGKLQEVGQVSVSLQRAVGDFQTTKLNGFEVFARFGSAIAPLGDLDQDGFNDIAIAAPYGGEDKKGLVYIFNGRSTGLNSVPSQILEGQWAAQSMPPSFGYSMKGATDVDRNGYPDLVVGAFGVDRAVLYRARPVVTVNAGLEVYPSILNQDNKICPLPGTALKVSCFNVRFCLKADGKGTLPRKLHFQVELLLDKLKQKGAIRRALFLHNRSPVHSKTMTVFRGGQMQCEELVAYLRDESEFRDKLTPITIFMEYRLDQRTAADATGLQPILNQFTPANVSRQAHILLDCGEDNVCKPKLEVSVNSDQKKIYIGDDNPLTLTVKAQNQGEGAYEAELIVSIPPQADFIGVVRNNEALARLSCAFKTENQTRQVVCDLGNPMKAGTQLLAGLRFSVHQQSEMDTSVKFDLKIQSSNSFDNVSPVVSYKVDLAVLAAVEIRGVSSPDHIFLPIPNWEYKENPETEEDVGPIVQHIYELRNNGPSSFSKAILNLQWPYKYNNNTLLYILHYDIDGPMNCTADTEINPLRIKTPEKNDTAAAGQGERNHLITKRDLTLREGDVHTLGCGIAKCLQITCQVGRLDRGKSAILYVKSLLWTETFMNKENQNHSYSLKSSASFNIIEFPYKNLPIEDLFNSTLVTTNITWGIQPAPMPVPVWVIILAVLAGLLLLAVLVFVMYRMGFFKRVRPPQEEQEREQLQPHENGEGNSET

These are yes or no findings as the source states them, for the method shown. Some binding calls cover weakened binding; strength is not graded here.

B1: wtMFG-E8 (human wild-type MFG-E8; SEQ ID NO: 1) (ligand)
chain: LDICSKNPCHNGGLCEEISQEVRGDVFPSYTCTCLKGYAGNHCETKCVEPLGLENGNIANSQIAASSVRVTFLGLQHWVPELARLNRAGMVNAWTPSSNDDNPWIQVNLLRRMWVTGVVTQGASRLASHEYLKAFKVAYSLNGHEFDFIHDVNKKHKEFVGNWNKNAVHVNLFETPVEAQYVRLYPTSCHTACTLRFELLGCELNGCANPLGLKNNSIPDKQITASSSYKTWGLHLFSWNPSYARLDKQGNFNAWVAGSYGNDQWLQVDLGSSKEVTGIITQGARNFGSVQFVASYKVAYSNDSANWTEYQDPRTGSSKIFPGNWDNHSHKKNLFETPILARYVRILPVAWHNRIALRLELLGC
With B1, the binding result in experiment [1] and in experiment [2] was “binds” in each case.
